In patent US20210292397A1 (LA TROBE UNIVERSITY, published 2021):
No constants are given. Whether binding was seen depends on the method and setting. Some entries that bind do so weakly or less than the wild type.

Sequences of proteins named here, by UniProt entry; tags and fusion partners are left off. A change or cut given only in a name is not applied to a line headed by its entry. A line that says so, or that is headed by a name, gives the form on record, which may keep a tag or linker. Residues count along the entry.
UniProt P02751: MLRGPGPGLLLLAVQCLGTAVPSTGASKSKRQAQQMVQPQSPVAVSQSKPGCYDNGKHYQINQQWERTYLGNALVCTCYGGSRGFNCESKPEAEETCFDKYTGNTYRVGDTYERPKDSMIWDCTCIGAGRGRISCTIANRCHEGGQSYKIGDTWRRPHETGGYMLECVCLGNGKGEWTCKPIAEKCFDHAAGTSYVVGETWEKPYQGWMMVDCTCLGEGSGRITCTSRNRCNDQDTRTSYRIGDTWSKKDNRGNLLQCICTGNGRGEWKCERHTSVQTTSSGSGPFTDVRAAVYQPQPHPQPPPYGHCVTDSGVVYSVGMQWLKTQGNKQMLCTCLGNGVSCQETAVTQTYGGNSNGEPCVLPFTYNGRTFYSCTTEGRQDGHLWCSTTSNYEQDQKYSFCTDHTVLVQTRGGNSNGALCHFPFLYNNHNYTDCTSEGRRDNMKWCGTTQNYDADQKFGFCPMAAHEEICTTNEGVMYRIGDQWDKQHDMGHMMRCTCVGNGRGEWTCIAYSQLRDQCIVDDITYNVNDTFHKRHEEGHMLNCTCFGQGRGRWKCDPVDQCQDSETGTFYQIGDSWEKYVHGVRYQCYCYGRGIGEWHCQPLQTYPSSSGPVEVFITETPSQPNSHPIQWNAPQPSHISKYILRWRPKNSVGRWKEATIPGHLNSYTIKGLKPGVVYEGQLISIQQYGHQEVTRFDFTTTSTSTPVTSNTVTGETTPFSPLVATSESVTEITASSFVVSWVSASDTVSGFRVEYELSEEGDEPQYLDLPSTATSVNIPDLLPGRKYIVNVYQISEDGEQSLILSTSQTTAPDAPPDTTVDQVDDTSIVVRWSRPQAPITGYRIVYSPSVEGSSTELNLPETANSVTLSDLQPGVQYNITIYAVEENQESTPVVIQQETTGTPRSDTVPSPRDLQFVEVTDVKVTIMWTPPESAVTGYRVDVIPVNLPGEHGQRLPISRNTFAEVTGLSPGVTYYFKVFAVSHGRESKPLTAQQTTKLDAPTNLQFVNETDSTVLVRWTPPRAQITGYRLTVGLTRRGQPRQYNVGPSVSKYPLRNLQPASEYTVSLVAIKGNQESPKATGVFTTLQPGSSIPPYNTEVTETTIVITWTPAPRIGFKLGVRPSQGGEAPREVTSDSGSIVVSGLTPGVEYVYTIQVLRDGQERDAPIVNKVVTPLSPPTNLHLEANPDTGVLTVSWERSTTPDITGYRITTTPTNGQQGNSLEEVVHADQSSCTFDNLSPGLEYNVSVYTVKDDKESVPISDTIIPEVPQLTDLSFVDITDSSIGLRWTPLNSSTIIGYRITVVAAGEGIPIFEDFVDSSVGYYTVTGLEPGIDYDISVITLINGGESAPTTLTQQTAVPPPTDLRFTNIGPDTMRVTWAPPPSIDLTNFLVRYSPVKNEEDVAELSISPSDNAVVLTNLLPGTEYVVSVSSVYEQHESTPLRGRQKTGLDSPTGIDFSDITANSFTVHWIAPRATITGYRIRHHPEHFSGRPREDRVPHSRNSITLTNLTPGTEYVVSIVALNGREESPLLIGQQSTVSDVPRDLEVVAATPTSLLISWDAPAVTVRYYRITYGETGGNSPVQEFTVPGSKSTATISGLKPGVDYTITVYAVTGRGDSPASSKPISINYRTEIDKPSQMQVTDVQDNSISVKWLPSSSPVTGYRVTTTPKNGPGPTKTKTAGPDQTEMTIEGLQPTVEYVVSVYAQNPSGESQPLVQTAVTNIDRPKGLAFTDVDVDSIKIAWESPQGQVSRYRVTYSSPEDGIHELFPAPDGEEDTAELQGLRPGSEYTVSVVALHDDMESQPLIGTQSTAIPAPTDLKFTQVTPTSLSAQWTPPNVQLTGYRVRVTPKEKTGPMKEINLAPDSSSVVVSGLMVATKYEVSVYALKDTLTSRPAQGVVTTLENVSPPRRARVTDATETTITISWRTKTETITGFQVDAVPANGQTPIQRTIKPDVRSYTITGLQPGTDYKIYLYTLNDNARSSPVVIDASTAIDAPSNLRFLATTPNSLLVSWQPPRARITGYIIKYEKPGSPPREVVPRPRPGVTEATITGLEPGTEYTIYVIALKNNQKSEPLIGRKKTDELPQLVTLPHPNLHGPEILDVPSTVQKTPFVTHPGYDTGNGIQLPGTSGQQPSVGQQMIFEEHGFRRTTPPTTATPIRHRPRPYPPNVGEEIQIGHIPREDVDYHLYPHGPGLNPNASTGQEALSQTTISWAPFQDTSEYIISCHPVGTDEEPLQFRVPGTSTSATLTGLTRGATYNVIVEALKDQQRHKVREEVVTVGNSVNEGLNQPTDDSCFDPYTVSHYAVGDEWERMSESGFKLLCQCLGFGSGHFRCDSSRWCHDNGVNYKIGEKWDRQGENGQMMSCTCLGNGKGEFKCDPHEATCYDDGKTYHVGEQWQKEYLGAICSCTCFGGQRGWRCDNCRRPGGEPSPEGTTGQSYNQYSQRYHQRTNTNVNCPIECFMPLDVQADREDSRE
human fibronectin: residues 32-2477 of P02751
70 kDa heparin/gelatin-binding fragment of human fibronectin (FnI1-9, FnII1-2): residues 32-608 of P02751
45 kDa gelatin-binding fragment of human fibronectin (FnI6-9, FnII1-2): residues 291-608 of P02751
120 kDa cell-binding fragment of human fibronectin (FnIII2-11) (P02751, form named): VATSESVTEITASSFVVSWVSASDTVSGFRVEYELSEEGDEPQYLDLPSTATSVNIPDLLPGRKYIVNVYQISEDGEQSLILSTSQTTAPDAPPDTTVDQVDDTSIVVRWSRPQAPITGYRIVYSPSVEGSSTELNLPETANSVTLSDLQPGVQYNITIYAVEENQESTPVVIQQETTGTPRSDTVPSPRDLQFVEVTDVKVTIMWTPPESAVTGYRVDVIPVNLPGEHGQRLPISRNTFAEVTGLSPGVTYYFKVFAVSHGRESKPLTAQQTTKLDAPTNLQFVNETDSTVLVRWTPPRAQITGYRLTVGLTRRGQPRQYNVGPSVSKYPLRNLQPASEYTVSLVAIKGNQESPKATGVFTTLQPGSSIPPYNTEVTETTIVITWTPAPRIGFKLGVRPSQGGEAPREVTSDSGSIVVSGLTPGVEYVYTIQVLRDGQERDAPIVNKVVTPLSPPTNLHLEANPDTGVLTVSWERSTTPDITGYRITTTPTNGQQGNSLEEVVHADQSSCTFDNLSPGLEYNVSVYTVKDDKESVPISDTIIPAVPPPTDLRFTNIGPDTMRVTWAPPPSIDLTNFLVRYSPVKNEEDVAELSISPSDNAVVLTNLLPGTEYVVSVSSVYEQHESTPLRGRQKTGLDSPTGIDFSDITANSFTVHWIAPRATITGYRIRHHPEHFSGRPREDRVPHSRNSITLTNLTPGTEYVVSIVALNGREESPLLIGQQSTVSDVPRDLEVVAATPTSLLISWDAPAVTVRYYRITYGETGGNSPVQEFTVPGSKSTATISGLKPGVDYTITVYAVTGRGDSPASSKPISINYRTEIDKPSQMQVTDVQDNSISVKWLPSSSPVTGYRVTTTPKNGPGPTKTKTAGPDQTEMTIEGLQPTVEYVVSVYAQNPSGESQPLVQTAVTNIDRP

Key:
[1] = molecular target: 120 kDa cell-binding fragment of human fibronectin (FnIII2-11) (human) (UniProt P02751); test: ELISA with fibronectin fragments
[2] = molecular target: 45 kDa gelatin-binding fragment of human fibronectin (FnI6-9, FnII1-2) (human) (UniProt P02751); test: ELISA with fibronectin fragments
[3] = molecular target: 70 kDa heparin/gelatin-binding fragment of human fibronectin (FnI1-9, FnII1-2) (human) (UniProt P02751); test: ELISA with fibronectin fragments
[4] = molecular target: human fibronectin (human) (UniProt P02751); test: ELISA against fibronectin, laminin and fibrinogen
[5] = molecular target: human fibronectin (human) (UniProt P02751); test: ELISA, absorbance at 405 nm, n=9, PBS as control
[6] = molecular target: 120 kDa cell-binding fragment of human fibronectin (FnIII2-11) (human) (UniProt P02751); test: ELISA of fibronectin fragments and full-length fibronectin with UpaB
[7] = molecular target: 45 kDa gelatin-binding fragment of human fibronectin (FnI6-9, FnII1-2) (human) (UniProt P02751); test: as above
[8] = molecular target: 70 kDa heparin/gelatin-binding fragment of human fibronectin (FnI1-9, FnII1-2) (human) (UniProt P02751); test: as above
[9] = molecular target: human fibronectin (human) (UniProt P02751); test: as above
[10] = molecular target: human fibronectin (human) (UniProt P02751); test: ELISA of fibronectin binding, detected with a fibronectin-specific polyclonal antibody

Measured: binding

B1: UpaB α-domain (α^UpaB) from UPEC strain CFT073 (other)
chain: TDSTVSTDPVTLNTEKTTLDQDVVINGDNKITAVTIETSDSDKDLNVTFGGHDITAASTVNQDFVEGVKVSGNKNVVINATDSTITAQGEGTYVRTAMVIDSTGDVVVNGGNFVAKNEKGSATGISLEATTGNNLTLNGTTINAQGNKSYSNGSTAIFAQKGNLLQGFDGDATDNITLADSNIINGGIETIVTAGNKTGIHTVNLNIKDGSVIGAANNKQTIYASASAQGAGSATQNLNLSVADSTIYSDVLALSESENSASTTTNVNMNVARSYWEGNAYTFNSGDKAGSDLDINLSDSSVWKGKVSGAGDASVSLQNGSVWNVTGSSTVDALAVKDSTVNITKATVNTGTFASQNGTLIVDASSENTLDISGKASGDLRVYSAGSLDLINEQTAFISTGKDSTLKATGTTEGGLYQYDLTQGADGNFYFVKNTHKASNASSVIQAMAAAPANVANLQADTL
notes: also called α^UPaB (native)
binds: [1] | [2] | [3] | [4] | [5] | [6] | [7] | [8] | [9] | [10]
